In patent publication EP2725105A1, “ENZYMATIC PRODUCTION METHOD FOR BRAIN-FUNCTION-IMPROVING PEPTIDES” (Calpis Co., Ltd., priority 2011, dated 2014):
At least one peptide structure holds a part that was inferred or is arguable (an end, a ring closure or a residue). Some compounds share one wording; it may come from a single statement. Where no end group is shown, it is not given here.

What was measured:
Male ddY mice [1] = test: Y-shaped maze test (spontaneous alternation behavior), scopolamine-induced amnesia; format: in vivo; conditions: scopolamine 1 mg/kg body weight subcutaneously 30 minutes before test
Male ddY mice [2] = test: Novel object recognition test (memory retention); format: in vivo; conditions: Example 6, FIG. 7; single oral dose 500 nmol/kg body weight (1,000 µg/kg) 60 minutes before training trial; retention trial 48 hours after
[3] = Example 5, FIG. 6, single oral dose 50 nmol/kg body weight (100 µg/kg or 120 µg/kg respectively) 60 minutes before test

| Sequence | amnesia-preventing action (change in spontaneous alternation behavior) (Male ddY mice [1]; Example 7, FIG. 8, single oral dose 150 nmol/kg body weight to 500 nmol/kg body weight (380 µg/kg to 1,280 µg/kg) 60 minutes before test) | memory-enhancing action (percentage of exploration time for the novel object) (Male ddY mice [2]) | amnesia-preventing action (change in spontaneous alternation behavior) (Male ddY mice [1]; Example 4, FIG. 5, single oral dose 0.05 nmol/kg body weight to 500 nmol/kg body weight (0.1 µg/kg to 1,000 µg/kg) 60 minutes before test) | amnesia-preventing action (change in spontaneous alternation behavior) (Male ddY mice [1]; [3]) |
| --- | --- | --- | --- | --- |
| SWMHQPHQPLPPTVMFPPQSVL | amnesia-preventing action |  |  |  |
| NIPPLTQTPVVVPPFLQPE [NIPPLTQTPVVVPPFLQPE, Asn-Ile-Pro-Pro-Leu-Thr-Gln-Thr-Pro-Val-Val-Val-Pro-Pro-Phe-Leu-Gln-Pro-Glu] |  | memory-enhancing action | amnesia-preventing action | amnesia-preventing action |
| NIPPLTQTPVVVPPFLQPEVM |  |  |  | amnesia-preventing action |
